According to patent US6911537B2, “Xenobiotic compound modulated expression systems and uses therefor” (The Salk Institute for Biological Studies, priority 1998, dated 2005):
“Also recorded” adds a separate entry of the source. Read-outs that look alike come from different tables or passages of the source. At least one structure is not confirmed: it was looked up by name or label, or the drawing left a doubt.

System: CYP3A11 gene
Conditions: single dose 24 h before sacrifice; for Induction of liver CYP3A11 expression in Alb-SXR transgenic mice: RIF 5 mg/kg, BRL 20 mg/kg, troglitazone and ciglitazone 150 mg/kg by gavage, CTZ 50 mg/kg, PCN 40 mg/kg i.p.
Description: The animals were allowed free access to food and water at all times. […] When necessary, mice were treated with a single intraperitoneal injection of DEX (50 mg/kg), PCN (40 mg/kg), or CTZ (50 mg/kg).
To detect specific transcripts, [^32P]-cDNA probes labeled by Random Primer Labeling Kit (Boringher) were hybridized to the membranes. The probe used to detect transgene contains both the SXR cDNA and the SV40 sequences. […] The filters were subsequently stripped and rehybridized with a murine glyceraldehyde-3-phosphate dehydrogenase (GAPDH) cDNA probe for RNA loading normalization.
Tissues were harvested 24 h later and subjected to Northern blot analysis.

CC1(COc2ccc(CC3SC(=O)NC3=O)cc2)CCCCC1 (stereo not drawn) [ciglitazone]
Induction of liver CYP3A11 expression in Alb-SXR transgenic mice: selectively up-regulate; also recorded: comparable level of CYP3A induction as RIF at 5 mg/kg | Induction of liver CYP3A11 expression in Alb-SXR transgenic mice (listed as Ciglitazone): more efficacious CYP3A inducer than troglitazone | Induction of liver CYP3A11 expression in wild type / nontransgenic mice (same doses as in transgenic mice): but not in their nontransgenic littermates
